These results are taken from patent US20250019410A1 (Sun Pharmaceutical Industries Ltd., priority 2021, published 2025).

The series is described as follows: general procedure: Fmoc solid-phase peptide synthesis; 2-chlorotrityl chloride resin (protected fragments); Fmoc-Rink Amide AM resin (tirzepatide); Coupling reagent/Auxiliary nucleophile/Base. Conditions: whole synthesis, sodium salt, acetate salt; for crude purity (method not given): HPLC.

With Boc-Tyr(tBu)^t-Aib-Glu(OtBu)-Gly^4-OH, the “crude purity (method not given)” value turned out to be 96% Purity and the crude yield is listed as 91% Yield.

For the substance “Fmoc-Ala^18-Gln(Trt)-Lys(Side Chain)*-Ala-Phe-Val-Gln(Trt)-Trp^25-Leu-Ile-Ala-Gly^29-OH”, the “crude purity (method not given)” value was 92% Purity.

As for “Fmoc-Ala^18-Gln(Trt)-Lys(ivdde)*-Ala Phe-Val-Gln(Trt)-Trp^25-Leu-Ile-Ala-Gly^29-OH”, the “crude purity (method not given)” value was determined as 95% Purity and the crude yield was 95% Yield. Consider “Fmoc-Lys(Boc)^16-Ile-Ala-Gln(Trt)-Lys(Side chain)*-Ala-Phe-Val-Gln(Trt)-Trp-Leu-Ile-Ala -Gly^29-OH”, for which the “crude purity (method not given)” value is 80% Purity. As to Fmoc-Thr(tBu)^5-Phe-Thr(tBu)-Ser(tBu)^8, the “crude purity (method not given)” value is 99% Purity and the crude yield was above 90% Yield.
